From PubChem BioAssay AID280 (DTP/NCI, 2004)
The list does not hold the whole screen: it gathers tests that were run many times, whatever their T/C, doses with no T/C, and many T/C values between a quarter and a half above the control. Other doses and runs of a compound stand elsewhere. T/C: endpoint of the treated group in % of that of the vehicle group. Some doses have a count of surviving animals in place of a T/C: the source files T/C as zero there, which appears to mark a toxic dose or a test without result, not a measured value. Some doses without a T/C left all or most animals alive at the check, yet need not have been tolerated: survival well below the control is almost never listed, so the zero probably covers shortened survival too. Counts of survivors are from the toxicity check (mostly the fifth day) where no day follows; animals may have died later. Schedule codes are those of the source, read here as Q, the interval in days (D) or hours (H), X, the number of doses. Some entries were tested several times; the results are listed from low to high. For survival time, this PubChem deposit counts one and a half times the control or more as active, and values a quarter to a half above the control carry no call in these data; other NCI protocols may use other cut-offs. Some T/C values carry the count of animals alive at the toxicity check (mostly the fifth day); without a count, all were alive then.

Test system: nude mice, LOX melanoma ip, survival T/C
Assay: NCI In Vivo Anticancer Drug Screen. Data for tumor model Human Amelanotic Melanoma (LOX) (intraperitoneal) in NU/NU BALB/C (nude) mice
Conditions: T/C endpoint: median survival time, higher T/C = longer survival
Method: The antitumor activity of compounds was measured in mice bearing transplantable tumors. Survival or tumor size were measured and the results are expressed as the measurement made in the treated group (T) divided by the measurement made in the vehicle treated control group (C). The tumor model used in this assay is Human Amelanotic Melanoma (LOX) (intraperitoneal) in NU/NU BALB/C (nude) mice

[1] = dose: 150.0 mg/kg/injection, schedule: Q04DX003 (ip), vehicle: Klucel (hydroxypropylcellulose) (HPC)
[2] = dose: 600.0 mg/kg/injection, schedule: Q04DX003 (ip), vehicle: Klucel (hydroxypropylcellulose) (HPC)
[3] = dose: 300.0 mg/kg/injection, schedule: Q04DX003 (ip), vehicle: water
[4] = dose: 600.0 mg/kg/injection, schedule: Q04DX003 (ip), vehicle: water
[5] = dose: 1200.0 mg/kg/injection, schedule: Q04DX003 (ip), vehicle: Klucel (hydroxypropylcellulose) (HPC)
[6] = dose: 800.0 mg/kg/injection, schedule: Q04DX003 (ip), vehicle: saline with Tween-80

COc1cc2c(cc1OC)[C@@H]1C(=O)c3ccc4c(c3O[C@@H]1CO2)C[C@H](C(C)C)O4
survivor count (dose: 75.0 mg/kg/injection, schedule: Q04DX003 (ip), vehicle: Klucel (hydroxypropylcellulose) (HPC)): 2 of 6 on day 10 | survivor count [1]: 0 of 6 on day 10 | survivor count (dose: 300.0 mg/kg/injection, schedule: Q04DX003 (ip), vehicle: Klucel (hydroxypropylcellulose) (HPC)): 0 of 6 on day 10

COc1cccc2c1C(=O)C1=C(C2=O)c2c(O)cc(CO)cc2C(O)C1O (stereo not given)
survivor count (dose: 100.0 mg/kg/injection, schedule: Q04DX003 (ip), vehicle: saline + Tween-80 + alcohol): 3 of 6 on day 10

C=C1c2cccc(O)c2C(O)=C2C(=O)[C@]3(O)C(O)=C(C(N)=O)C(=O)[C@@H](N(C)C)[C@@H]3[C@@H](O)[C@H]12
survivor count [1]: 5 of 6 on day 10 | survivor count [2]: 0 of 6 on day 10

CO[C@@]12[C@@H]3N[C@@H]3CN1C1=C(C(=O)C(NCCc3ccccn3)=C(C)C1=O)[C@@H]2COC(N)=O
T/C (dose: 0.78 mg/kg/injection, schedule: Q04DX003 (ip), vehicle: saline with Tween-80): 146 % of control | survivor count (dose: 50.0 mg/kg/injection, schedule: Q04DX003 (ip), vehicle: saline with Tween-80): 6 of 6 on day 10

COc1cccc2c1C(=O)c1c(O)c3c(c(O)c1C2=O)C[C@@](O)(C(=O)CO)C[C@@H]3OC1CC(N)C(O)C(C)O1 (stereo not given in full)
T/C (dose: 0.5 mg/kg/injection, schedule: Q01DX005 (ip), vehicle: water): 139 % of control | T/C (dose: 2.0 mg/kg/injection, schedule: Q01DX005 (ip), vehicle: water): 149 % of control | survivor count (dose: 2.0 mg/kg/injection, schedule: Q01DX015 (ip), vehicle: water): 6 of 6 on day 10 | T/C (dose: 2.0 mg/kg/injection, schedule: Q04DX003 (ip), vehicle: saline): 126 % of control | T/C (dose: 2.0 mg/kg/injection, schedule: Q04DX003 (iv), vehicle: saline): 137 % of control | survivor count (dose: 4.0 mg/kg/injection, schedule: Q01DX005 (ip), vehicle: water): 1 of 6 on day 10 | survivor count (dose: 4.0 mg/kg/injection, schedule: Q01DX015 (ip), vehicle: water): 0 of 6 on day 10 | T/C (dose: 8.0 mg/kg/injection, schedule: Q01DX001 (ip), vehicle: water): 127 % of control | survivor count (dose: 8.0 mg/kg/injection, schedule: Q01DX005 (ip), vehicle: water): 0 of 6 on day 10 | survivor count (dose: 8.0 mg/kg/injection, schedule: Q04DX003 (ip), vehicle: water): 4 of 6 on day 10 | survivor count (dose: 16.0 mg/kg/injection, schedule: Q01DX001 (ip), vehicle: water): 2 of 6 on day 10 | survivor count (dose: 16.0 mg/kg/injection, schedule: Q04DX003 (ip), vehicle: water): 0 of 6 on day 10 | survivor count (dose: 16.0 mg/kg/injection, schedule: Q04DX003 (iv), vehicle: saline): 2 of 6 on day 10 | survivor count (dose: 32.0 mg/kg/injection, schedule: Q01DX001 (ip), vehicle: water): 2 of 6 on day 10

COC(=O)NC1C(C)OC(OC2C/C=C(/C)C3C=CC4C(OC5CC(OC6CC(OC7CC(O)C(O)C(C)O7)C(OC7CC(O)C(OC)C(C)O7)C(C)O6)C(O)C(C)O5)C(C)CC(C)C4C3(C)/C(O)=C3\C(=O)OC4(CC(C)C(CO)=CC4/C=C\2C)C3=O)CC1(C)[N+](=O)[O-] (stereo not given)
T/C (dose: 37.5 mg/kg/injection, schedule: Q04DX003 (ip), vehicle: water): 125 % of control | survivor count [3]: 1 of 6 on day 10 | survivor count [4]: 0 of 6 on day 10

CC(=O)O[C@H]1C(=O)[C@@]2(C)[C@H]([C@H](OC(=O)c3ccccc3)[C@]3(O)C[C@H](OC(=O)[C@H](O)[C@@H](NC(=O)c4ccccc4)c4ccccc4)C(C)=C1C3(C)C)[C@]1(OC(C)=O)CO[C@@H]1C[C@@H]2O
T/C (dose: 1.88 mg/kg/injection, schedule: Q01DX009 (ip), vehicle: Klucel (hydroxypropylcellulose) (HPC)): 147 % of control | T/C (dose: 7.5 mg/kg/injection, schedule: Q01DX009 (ip), vehicle: Klucel (hydroxypropylcellulose) (HPC)): 142 % of control | survivor count (dose: 30.0 mg/kg/injection, schedule: Q01DX009 (ip), vehicle: Klucel (hydroxypropylcellulose) (HPC)): 6 of 9 on day 10 and 10 of 10 on day 14

O=C1c2cccc(NCCNCCO)c2C(=O)c2cccc(NCCNCCO)c21
T/C (dose: 18.75 mg/kg/injection, schedule: Q04DX003 (ip), vehicle: suspension in saline): 126 % of control | survivor count (dose: 37.5 mg/kg/injection, schedule: Q04DX003 (ip), vehicle: suspension in saline): 2 of 6 on day 10 | survivor count (dose: 75.0 mg/kg/injection, schedule: Q04DX003 (ip), vehicle: suspension in saline): 0 of 6 on day 10

Cc1nc(C(Cl)(Cl)Cl)[nH]c(=O)c1SCCO
survivor count (dose: 1200.0 mg/kg/injection, schedule: Q04DX003 (ip), vehicle: distilled water + Tween-80 + alcohol): 0 of 6 on day 10

C=C(c1ccc(OC)c(OC)c1)c1nccc2cc(OC)c(OC)cc12
survivor count [2]: 3 of 6 on day 10 | survivor count [5]: 1 of 6 on day 10

Nc1ccc(S(=O)(=O)Nc2cnc3c(Cl)cccc3n2)cc1
T/C (dose: 450.0 mg/kg/injection, schedule: Q01DX005 (ip), vehicle: other): 127 % of control [5 of 6 alive on day 10] | survivor count (dose: 450.0 mg/kg/injection, schedule: Q06HX002 (ip), vehicle: other): 3 of 6 on day 10 | survivor count (dose: 674.7 mg/kg/injection, schedule: Q01DX005 (ip), vehicle: other): 0 of 6 on day 10 | survivor count (dose: 1011.5 mg/kg/injection, schedule: Q01DX001 (ip), vehicle: other): 0 of 6 on day 10

CCCCOCN(COCCCC)C12CC3CC(CC(C3)C1)C2
survivor count [6]: 0 of 6 on day 10

COc1cc(C2=NCCc3cc4c(cc32)OCO4)cc(OC)c1OC
survivor count (dose: 300.0 mg/kg/injection, schedule: Q04DX003 (ip), vehicle: saline + alcohol): 1 of 6 on day 10

O=C1CN(CCN2CC(=O)N(CN3CCOCC3)C(=O)C2)CC(=O)N1CN1CCOCC1
survivor count (dose: 150.0 mg/kg/injection, schedule: Q04DX003 (ip), vehicle: saline with Tween-80): 2 of 6 on day 10 | survivor count (dose: 300.0 mg/kg/injection, schedule: Q04DX003 (ip), vehicle: saline with Tween-80): 2 of 6 on day 10 | survivor count [3]: 1 of 6 on day 10 | survivor count [4]: 0 of 6 on day 10

CCCSc1nc(COC(=O)NC)c(COC(=O)NC)n1C
survivor count (dose: 480.0 mg/kg/injection, schedule: Q04DX003 (ip), vehicle: saline): 0 of 6 on day 10

O=C(NC(Cc1ccc(I)cc1)C(=O)O)c1cccc(Br)c1 (stereo not given)
survivor count [2]: 1 of 6 on day 10 | survivor count (dose: 800.0 mg/kg/injection, schedule: Q04DX003 (ip), vehicle: Klucel (hydroxypropylcellulose) (HPC)): 3 of 6 on day 10 | survivor count [5]: 0 of 6 on day 10

CCCCCC[Se][Se]CCCCCC
survivor count [2]: 0 of 6 on day 10

Cc1cc2c(=O)cc(-c3ccccc3)oc2c(C(=O)O)c1C
survivor count (dose: 500.0 mg/kg/injection, schedule: Q04DX003 (ip), vehicle: saline with Tween-80): 0 of 6 on day 10 | survivor count (dose: 1000.0 mg/kg/injection, schedule: Q04DX003 (ip), vehicle: saline with Tween-80): 0 of 6 on day 10

S=C(NCNC(=S)c1ccncc1)c1ccncc1
survivor count (dose: 1200.0 mg/kg/injection, schedule: Q04DX003 (ip), vehicle: saline with Tween-80): 2 of 6 on day 10

O=C1C2=C(Nc3cc([N+](=O)[O-])ccc3N2)OC1c1ccccn1 (stereo not given)
T/C (dose: 400.0 mg/kg/injection, schedule: Q04DX003 (ip), vehicle: Klucel (hydroxypropylcellulose) (HPC)): 138 % of control

COc1ccc(O)cc1
survivor count (dose: 400.0 mg/kg/injection, schedule: Q04DX003 (ip), vehicle: saline with Tween-80): 5 of 6 on day 10 | survivor count [6]: 0 of 6 on day 10

CNC(=O)OCc1nc(SC)n(C)c1COC(=O)NC
T/C (dose: 14.38 mg/kg/injection, schedule: Q04DX003 (ip), vehicle: saline): 126 % of control | T/C (dose: 28.75 mg/kg/injection, schedule: Q04DX003 (ip), vehicle: saline): 145 % of control | T/C (dose: 34.1 mg/kg/injection, schedule: Q04DX003 (ip), vehicle: water): 145 % of control | survivor count (dose: 172.4 mg/kg/injection, schedule: Q04DX003 (ip), vehicle: water): 6 of 6 on day 14 | survivor count (dose: 230.0 mg/kg/injection, schedule: Q04DX003 (ip), vehicle: saline): 1 of 6 on day 10
